Reference: PubChem BioAssay AID540256 (National Center for Advancing Translational Sciences (NCATS), 2011)
Screen size: about 300,000 compounds; about 3,700 (1.2%) were called active. The shares of active, inactive and inconclusive entries below differ from those in the screen. Calls follow the shape of the full dose curve; tested in HEK293 cells. Potencies beside an inconclusive call are fits to weak or partial responses and may not hold up.

Test: qHTS for Inhibitors of binding or entry into cells for Lassa Virus; also: nearly all actives have a fitted effect of over 50% in size
Conditions: Lassa virus pseudotype entry inhibition, cell reporter; activity change, negative = inhibition: at 37.9 µM (top of the series) unless noted
% is scaled to controls: 0 for no effect and ±100 for the full control effect; potency is read from the fitted curve at half-maximal effect.

Structure (SMILES) | activity change, negative = inhibition | Potency
COc1ccccc1NCC(O)COc1ccc(C(C)(C)C)cc1 (stereo not drawn) | inactive: -9.66% | 
CN1CCN(S(=O)(=O)c2cccc(C(=O)N(C)C(c3ccccc3)c3ccccc3)c2)CC1 | inactive: -3.8% | 
COc1cc(NC(=O)c2cccc3c2C(=O)N(C2CCCCC2)C3)cc(OC)c1 |  | inconclusive: 3.16 µM [activator, full curve]
CCn1c(=O)c(C(=O)Nc2ccc(C(C)=O)cc2)nc2ccccc21 | inactive: 22.9% [at 46.1 µM] | 
CCOc1ccc2nc(SCc3ccccc3C#N)sc2c1 |  | inconclusive: 0.631 µM [activator, full curve, poor fit]
c1ccc(-c2nc(NCC3CCCO3)c3oc4ccccc4c3n2)cc1 (stereo not drawn) | inactive: 4.81% | 
Fc1ccc(NC(=S)NNc2ncc(C(F)(F)F)cc2Cl)c(F)c1 |  | inconclusive: 11.2 µM [inhibitor, partial curve, poor fit]
Cc1cccc(N=C2c3cc([N+](=O)[O-])ccc3-c3c2cc([N+](=O)[O-])cc3[N+](=O)[O-])c1 | inactive: -29.6% | 
N#CC(C#N)=C1C=CC=CN1/C(=C\c1ccccc1Cl)C(=O)c1ccccc1 |  | inconclusive: 11.2 µM [inhibitor, partial curve, poor fit]
CCOC(=O)C1=C(Cn2cnc3ccccc32)NC(=O)NC1c1cc(C)ccc1C (stereo not drawn) |  | inconclusive: 20.6 µM [inhibitor, single point]
COc1ccc(CN2CCN(Cc3ccco3)CC2)cc1 |  | inconclusive: 1.12 µM [activator, single point]
O=C(NCc1ccco1)c1ccccc1NS(=O)(=O)c1ccc(Cl)s1 | inactive: -17.7% | 
Cc1cc(C(=O)OCC(=O)Nc2ccccc2F)c(C)o1 | inactive: 16.2% | 
COc1ccc(CN(C)C(=O)c2ccc(OCC(=O)Nc3cccc(C(F)(F)F)c3)c(OC)c2)c(OC)c1 |  | inconclusive: 35.5 µM [inhibitor, single point]
Cc1ccc(CS(=O)(=O)c2ncc(Cl)c(C(=O)Nc3nc4ccc(C)cc4s3)n2)cc1 |  | inconclusive: 14.1 µM [inhibitor, partial curve, poor fit]
CCC(Oc1ccc(Br)cc1)C(=O)N1CCN(c2ncccn2)CC1 (stereo not drawn) |  | inconclusive: 6.31 µM [inhibitor, full curve, poor fit]
CCOC(=O)N1CCN(C(=O)c2ccccc2Oc2ccccc2)CC1 |  | inconclusive: 12.6 µM [inhibitor, partial curve, poor fit]
CC1CCCCN1S(=O)(=O)c1ccc(C(=O)Nc2sc3c(c2C(N)=O)CC(C)(C)NC3(C)C)cc1 (stereo not drawn) | inactive: 1.6% [at 46.1 µM] | 
Cc1cc([N+](=O)[O-])ccc1NC(=O)CN1C2CCC1CC(NC(=O)NC13CC4CC(CC(C4)C1)C3)C2 (stereo not drawn) | inactive: -20.8% [at 46.1 µM] | 
CCN(CC)CCCn1c(C)cc2c(c1=O)C(c1cccc(Cl)c1)C(C#N)=C(N)O2 (stereo not drawn) |  | inconclusive: 35.5 µM [inhibitor, single point]
CCCn1c(=O)[nH]c(=O)c2c1nc(-c1ccc(OC)c(Br)c1)n2CCOC |  | active: 7.94 µM
O=C(Nc1cc(S(=O)(=O)N2CCOCC2)ccc1OCC(F)(F)F)C1=COCCO1 |  | inconclusive: 1.12 µM [inhibitor, single point]
O=C(CC(=O)c1cc(Cl)ccc1O)c1ccccc1 |  | active: 13 µM

18 entries from above, tab-delimited:
Structure (SMILES)	activity change, negative = inhibition	Potency
CCOc1ccc2nc(SCc3ccccc3C#N)sc2c1		inconclusive: 0.631 µM [activator, full curve, poor fit]
c1ccc(-c2nc(NCC3CCCO3)c3oc4ccccc4c3n2)cc1 (stereo not drawn)	inactive: 4.81%	
Fc1ccc(NC(=S)NNc2ncc(C(F)(F)F)cc2Cl)c(F)c1		inconclusive: 11.2 µM [inhibitor, partial curve, poor fit]
Cc1cccc(N=C2c3cc([N+](=O)[O-])ccc3-c3c2cc([N+](=O)[O-])cc3[N+](=O)[O-])c1	inactive: -29.6%	
N#CC(C#N)=C1C=CC=CN1/C(=C\c1ccccc1Cl)C(=O)c1ccccc1		inconclusive: 11.2 µM [inhibitor, partial curve, poor fit]
CCOC(=O)C1=C(Cn2cnc3ccccc32)NC(=O)NC1c1cc(C)ccc1C (stereo not drawn)		inconclusive: 20.6 µM [inhibitor, single point]
COc1ccc(CN2CCN(Cc3ccco3)CC2)cc1		inconclusive: 1.12 µM [activator, single point]
O=C(NCc1ccco1)c1ccccc1NS(=O)(=O)c1ccc(Cl)s1	inactive: -17.7%	
Cc1cc(C(=O)OCC(=O)Nc2ccccc2F)c(C)o1	inactive: 16.2%	
COc1ccc(CN(C)C(=O)c2ccc(OCC(=O)Nc3cccc(C(F)(F)F)c3)c(OC)c2)c(OC)c1		inconclusive: 35.5 µM [inhibitor, single point]
Cc1ccc(CS(=O)(=O)c2ncc(Cl)c(C(=O)Nc3nc4ccc(C)cc4s3)n2)cc1		inconclusive: 14.1 µM [inhibitor, partial curve, poor fit]
CCC(Oc1ccc(Br)cc1)C(=O)N1CCN(c2ncccn2)CC1 (stereo not drawn)		inconclusive: 6.31 µM [inhibitor, full curve, poor fit]
CCOC(=O)N1CCN(C(=O)c2ccccc2Oc2ccccc2)CC1		inconclusive: 12.6 µM [inhibitor, partial curve, poor fit]
CC1CCCCN1S(=O)(=O)c1ccc(C(=O)Nc2sc3c(c2C(N)=O)CC(C)(C)NC3(C)C)cc1 (stereo not drawn)	inactive: 1.6% [at 46.1 µM]	
Cc1cc([N+](=O)[O-])ccc1NC(=O)CN1C2CCC1CC(NC(=O)NC13CC4CC(CC(C4)C1)C3)C2 (stereo not drawn)	inactive: -20.8% [at 46.1 µM]	
CCN(CC)CCCn1c(C)cc2c(c1=O)C(c1cccc(Cl)c1)C(C#N)=C(N)O2 (stereo not drawn)		inconclusive: 35.5 µM [inhibitor, single point]
CCCn1c(=O)[nH]c(=O)c2c1nc(-c1ccc(OC)c(Br)c1)n2CCOC		active: 7.94 µM
O=C(Nc1cc(S(=O)(=O)N2CCOCC2)ccc1OCC(F)(F)F)C1=COCCO1		inconclusive: 1.12 µM [inhibitor, single point]

Additional structures

Structure (SMILES) | activity change, negative = inhibition | Potency
COC(=O)C1=C(C)N(Cc2ccccc2)C(=NCC(C)C)NC1c1cccc(C(F)(F)F)c1 (stereo not drawn) |  | inconclusive: 1.06 µM [inhibitor, single point]
O=C(C=Cc1ccccc1)c1c[nH]c2ccccc2c1=O |  | inconclusive: 10 µM [inhibitor, partial curve, poor fit]
C=CCSc1nc2c(c(=N)n1CC=C)C1CCCC1S2 (stereo not drawn) |  | inconclusive: 25.9 µM [inhibitor, partial curve, poor fit]
Cc1cc(/C=C2/SC(=O)NC2=O)c(C)n1-c1ccc(N2CCOCC2)cc1 |  | inconclusive: 7.08 µM [inhibitor, partial curve, poor fit]
COc1cc(C(=O)Nc2nc3ccc(S(C)(=O)=O)cc3s2)cc(OC)c1C |  | inconclusive: 0.562 µM [inhibitor, full curve, poor fit]
COc1ccc(N2CCN(C(=O)c3cc(-c4cc(OC)ccc4OC)nc4ccccc34)CC2)cc1 |  | inconclusive: 12.6 µM [inhibitor, partial curve, poor fit]
O=C(Nc1ccccn1)C12CC3CC(CC(C3)C1)C2 | inactive: -17.8% | 
CCCCC(=O)NC(c1ccccc1Cl)c1c(O)ccc2ccccc12 (stereo not drawn) | inactive: -39.7% | 
CSc1ccc(C(=O)C2CCCN(C(=O)CN3CCOC3=O)C2)cc1 (stereo not drawn) | inactive: 0.498% | 
COc1cccc(-c2nc(SCC(=O)Nc3ccc4c(c3)OCCO4)c(-c3ccccc3)[nH]2)c1 |  | inconclusive: 25.1 µM [inhibitor, single point]
O=C(NCCn1cc(SCc2ccc(Cl)cc2)c2ccccc21)c1cccs1 |  | inconclusive: 35.5 µM [inhibitor, single point]
Oc1ccc(Cl)cc1C1=NNC(c2ccc(Cl)cc2)C1 (stereo not drawn) | inactive: -26.9% | 
CCOC(=O)C1=C(C)N=C2SCCC(=O)N2C1c1ccc(C(=O)OC)cc1 (stereo not drawn) |  | inconclusive: 22.4 µM [inhibitor, single point]
O=C(NC(NC(=S)Nc1c(Cl)cc(Cl)cc1Cl)C(Cl)(Cl)Cl)OCc1ccccc1 (stereo not drawn) |  | inconclusive: 10 µM [inhibitor, partial curve]
CCOc1cc(C(=S)N2CCCC2)ccc1OCc1ccccc1 |  | inconclusive: 35.5 µM [inhibitor, single point]
CCOCCc1nn2c(=O)cc(COC(=O)c3ccccc3NC(=O)C3CCCCC3)nc2s1 | inactive: 10.9% [at 46.1 µM] | 
Oc1ccccc1C1=Nc2nc3ccccc3n2C(c2ccccc2)C1 (stereo not drawn) |  | inconclusive: 1.26 µM [activator, full curve, poor fit]
Cc1csc(NS(=O)(=O)c2cccc([N+](=O)[O-])c2)n1 |  | inconclusive: 0.562 µM [activator, full curve, poor fit]
Cc1nnc(NC(=O)c2ccc3c(c2)OCO3)s1 |  | inconclusive: 8.91 µM [inhibitor, partial curve, poor fit]
CCOC(=O)/C(C#N)=C/c1c(N2CCN(Cc3ccc4c(c3)OCO4)CC2)nc2c(C)cccn2c1=O |  | inconclusive: 17.8 µM [inhibitor, single point]
N#Cc1nc(-c2ccc(OCc3ccccc3)cc2)oc1N1CCC(C(N)=O)CC1 | inactive: 0.0923% | 
Cc1[nH]c2ccc(C(=O)OC(C)C(=O)N(C)c3ccccc3)cc2c1C (stereo not drawn) |  | active: 5.01 µM
COCCN(CCOC)Cc1cc(=O)oc2cc(C)c(Cl)cc12 |  | inconclusive: 3.53 µM [activator, single point]

Structure (SMILES) | activity change, negative = inhibition | Potency
COc1ccc(/C=C/c2cc(-c3ccc(C)cc3)o[n+]2C)cc1 |  | inconclusive: 11.2 µM [inhibitor, partial curve, poor fit]
Cc1ccc(-c2noc(/C=C/c3ccccc3)n2)cc1 |  | inconclusive: 6.51 µM [activator, single point]
Cc1cccc(NC(=O)Cn2c(=O)n(CCCS(=O)(=O)C3CCCCC3)c(=O)c3ccccc32)c1 | inactive: -6.34% [at 46.1 µM] | 
Cc1sc2nc(CSCC(=O)Nc3c(F)cccc3F)[nH]c(=O)c2c1C |  | inconclusive: 0.398 µM [inhibitor, full curve, poor fit]
CC(=O)c1ccc2noc(-c3cccc(F)c3)c2c1 | inactive: -19.7% | 
Cc1cccc(N2CCN(C(=O)COc3ccc4c(C)cc(=O)oc4c3C)CC2)c1C |  | inconclusive: 35.5 µM [inhibitor, single point]
Cc1ccc(S(=O)(=O)N2CCC(=O)N(C(COCc3ccc(Cl)cc3)Cc3ccccc3)CC2)cc1 (stereo not drawn) |  | inconclusive: 5.17 µM [inhibitor, single point]
Cc1ccc(C)c(NC(=O)Cn2cc(C(=O)c3ccco3)c3ccccc32)c1 | inactive: -29.7% [at 46.1 µM] | 
CCn1c(NC(=S)Nc2ccccc2)nc2ccccc21 | inactive: 3.42% | 
Brc1ccc(CSc2nnc(-c3ccco3)o2)cc1 | inactive: 8.78% | 
COCc1ccc(C(=O)N(C)CC2CCCN(CCc3ccc(OC)cc3)C2)o1 (stereo not drawn) |  | inconclusive: 3.16 µM [activator, partial curve, poor fit]
CCCn1nnnc1NC(=O)c1cccs1 | inactive: -1.15% | 
Cc1cccc(N2CCN(C(=O)c3ccccc3SCC(=O)N3CCCC3)CC2)c1C |  | inconclusive: 11.2 µM [inhibitor, partial curve, poor fit]
Cn1c(Cl)c(/C=N/OC(=O)c2ccccc2Cl)c2ccccc21 |  | inconclusive: 35.5 µM [activator, partial curve, poor fit]
CCCC(C)NC(=O)COc1ccc(S(=O)(=O)c2ccc(OCC(=O)NC(C)CCC)cc2)cc1 (stereo not drawn) |  | inconclusive: 23.1 µM [inhibitor, partial curve, poor fit]
Cc1cccc(-c2noc(-c3ccc(Cl)cc3[N+](=O)[O-])n2)c1 |  | inconclusive: 0.631 µM [activator, partial curve, poor fit]
COc1ccc(N(CC(=O)Nc2cccc(Cl)c2C)S(=O)(=O)c2c(C)nn(C)c2C)cc1 | inactive: -11.9% [at 46.1 µM] | 
COc1ccc(-c2cc(-c3nnc(COC(=O)C4CC4C)o3)c3ccccc3n2)cc1OC (stereo not drawn) |  | inconclusive: 8.91 µM [inhibitor, partial curve, poor fit]
Cc1cccc(OCCCC(=O)N2CCCc3ccccc32)c1C | inactive: 4.79% | 
O=C(CSc1nnc(-c2ccc(F)cc2)o1)N1CCCCC1 | inactive: 21.7% [at 46.1 µM] | 
O=C(Cc1ccccc1)Nc1ccc(SC(F)F)cc1 | inactive: -3.03% | 
Oc1ccc(/C=C/c2ccc(/C=C/c3ccc(O)cc3)c(Br)c2)cc1 |  | inconclusive: 5.17 µM [inhibitor, partial curve, poor fit]
